This note sets out measurements from patent US20140072558A1.

Sequences of proteins named here, by UniProt entry; tags and fusion partners are left off. Residues count along the entry.
UniProt P80370, residues 24-383: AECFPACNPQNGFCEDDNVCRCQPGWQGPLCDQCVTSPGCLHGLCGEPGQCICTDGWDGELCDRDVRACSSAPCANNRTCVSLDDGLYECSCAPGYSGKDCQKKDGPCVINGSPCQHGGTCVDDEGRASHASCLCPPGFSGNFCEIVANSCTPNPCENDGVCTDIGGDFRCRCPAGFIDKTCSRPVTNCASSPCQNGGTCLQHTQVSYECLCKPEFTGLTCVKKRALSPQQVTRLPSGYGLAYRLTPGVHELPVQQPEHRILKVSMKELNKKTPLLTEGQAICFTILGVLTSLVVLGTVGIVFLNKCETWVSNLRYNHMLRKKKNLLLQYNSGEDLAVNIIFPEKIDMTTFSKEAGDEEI

No constants are given. Whether binding was seen depends on the method and setting. Some entries that bind do so weakly or less than the wild type.

In experiment [1] the target is DLK1 on 293E cells expressing DLK1 (UniProt P80370). The experiment can be described thus: flow cytometry and fluoroimmunoassay.
The target is the same in experiment [2]. Description: flow cytometry on 293E cells expressing DLK1. (In general: Flow cytometry measures light scatter and fluorescence of single cells or particles in a stream.)

B1: B09 antibody (antibody, V domains shown)
VH: QMQLVESGGRLVRPGGSLRLSCAASGFPFTSYAMNWVRQTPGKGLEWVSTITATSGKTYYADSVKGRFTISRDNSRNTLFLQMNSLRAEDTAVYYCVRGESCSGGACSDFDYWGQGALVTVSS
VL: QLVLTQPASVSGSPGQSVTISCTGTSSDIGRYNRVSWYQHHPGKAPKLILNDVTTRPSGFSNRFSGSKSGNTASLTISGLQAEDEADYSCGSYAGSYTYVFGTGTKVTVLG
On to B1, for which the binding entry in experiment [1] and in experiment [2] was “binds” each time.
